The list does not hold the whole screen: it gathers tests that were run many times, whatever their T/C, doses with no T/C, and many T/C values between a quarter and a half above the control. Further doses and runs are listed elsewhere. T/C is the treated group as % of the vehicle group. Some doses have a count of surviving animals in place of a T/C: the source holds a T/C of zero for them, seemingly a mark for toxic or unscored doses. Some doses without a T/C left all or most animals alive at the check, yet need not have been tolerated: the source hardly ever lists a survival T/C far under the control, and the zero likely stands for such cases as well. Survivors were counted at the toxicity check, usually on the fifth day, unless a day is given; later deaths do not show. Schedule codes are those of the source, taken here to give the interval after Q, in days (D) or hours (H), and the number of doses after X. Where survival is the endpoint, the PubChem record calls one and a half times the control and up active, and a quarter to a half above the control has no call in these data; cut-offs in other NCI protocols can differ. Some entries hold several experiments; their values stand side by side, smallest first. Some schedule codes hold Z or #, which are not explained here. Some T/C values are followed by the survivors on the day toxicity was checked, most often the fifth; where none is given, no animal had died by that day.
Tested on: L1210 leukemia ip in BDF1 mice, survival T/C
Assay: NCI In Vivo Anticancer Drug Screen. Data for tumor model L1210 Leukemia (intraperitoneal) in B6D2F1 (BDF1) mice
Conditions: higher T/C = longer survival

`N=c1nc2n(cc1F)[C@@H]1O[C@H](CO)[C@@H](O)[C@@H]1O2` was tested, and the T/C (T/C endpoint: mean survival time, dose: 100.0 mg/kg/injection, schedule: Q04DX002 (ip), vehicle: Klucel (hydroxypropylcellulose) (HPC)) was 134 and 135 % of control, the T/C (T/C endpoint: mean survival time, dose: 200.0 mg/kg/injection, schedule: Q04DX002 (ip), vehicle: Klucel (hydroxypropylcellulose) (HPC)) was 138 and 145 % of control and the T/C (T/C endpoint: mean survival time, dose: 400.0 mg/kg/injection, schedule: Q01DX001 (ip), vehicle: saline) was 125 and 129 % of control. The T/C (T/C endpoint: mean survival time, dose: 400.0 mg/kg/injection, schedule: Q01DX009 (ip), vehicle: Klucel (hydroxypropylcellulose) (HPC)) was 139 % of control, the T/C (T/C endpoint: mean survival time, dose: 800.0 mg/kg/injection, schedule: Q01DX001 (ip), vehicle: saline) was 136 and 145 % of control and the T/C (T/C endpoint: mean survival time, dose: 1200.0 mg/kg/injection, schedule: Q01DX001 (ip), vehicle: Klucel (hydroxypropylcellulose) (HPC)) was 137 % of control. For the same compound, the T/C (T/C endpoint: mean survival time, dose: 1200.0 mg/kg/injection, schedule: Q01DX001 (ip), vehicle: saline) was 141 and 142 % of control, the T/C (T/C endpoint: mean survival time, dose: 1600.0 mg/kg/injection, schedule: Q01DX001 (ip), vehicle: Klucel (hydroxypropylcellulose) (HPC)) was 126 % of control and the T/C (T/C endpoint: mean survival time, dose: 1600.0 mg/kg/injection, schedule: Q01DX001 (ip), vehicle: saline) was 146 [5 of 6 alive] and 147 % of control. For the same compound, the T/C (T/C endpoint: mean survival time, dose: 2000.0 mg/kg/injection, schedule: Q01DX001 (ip), vehicle: saline) was 149 % of control, the survivor count (T/C endpoint: median survival time, dose: 200.0 mg/kg/injection, schedule: Q03HX024 (ip), vehicle: water) was 8 of 8 and the survivor count (T/C endpoint: median survival time, dose: 400.0 mg/kg/injection, schedule: Q03HX024 (ip), vehicle: water) was 5 of 8. For the same compound, the T/C (T/C endpoint: median survival time, dose: 800.0 mg/kg/injection, schedule: Q01DX001 (oral), vehicle: water) was 130 % of control [7 of 8 alive], the survivor count (T/C endpoint: median survival time, dose: 800.0 mg/kg/injection, schedule: Q01DX009 (ip), vehicle: water) was 7 of 8 and the survivor count (T/C endpoint: median survival time, dose: 800.0 mg/kg/injection, schedule: Q03HX024 (ip), vehicle: water) was 1 of 8. For the same compound, the T/C (T/C endpoint: median survival time, dose: 1200.0 mg/kg/injection, schedule: Q01DX001 (ip), vehicle: water) was 144 % of control [7 of 8 alive], the T/C (T/C endpoint: median survival time, dose: 1200.0 mg/kg/injection, schedule: Q01DX001 (oral), vehicle: water) was 130 % of control [6 of 8 alive] and the survivor count (T/C endpoint: median survival time, dose: 1600.0 mg/kg/injection, schedule: Q01DX001 (ip), vehicle: water) was 5 of 8. For the same compound, the survivor count (T/C endpoint: median survival time, dose: 1600.0 mg/kg/injection, schedule: Q01DX001 (oral), vehicle: water) was 4 of 8, the survivor count (T/C endpoint: median survival time, dose: 2000.0 mg/kg/injection, schedule: Q01DX001 (ip), vehicle: water) was 3 of 8 and the survivor count (T/C endpoint: median survival time, dose: 2000.0 mg/kg/injection, schedule: Q01DX001 (oral), vehicle: water) was 3 of 8.

In the case of `Nc1nc(=S)c2[nH]c(N=Nc3ccc(S(=O)(=O)Nc4nccs4)cc3)nc2[nH]1`, the T/C (T/C endpoint: mean survival time, dose: 22.0 mg/kg/injection, schedule: Q01DX001 (ip), vehicle: Klucel (hydroxypropylcellulose) (HPC)) is reported as 130 % of control, the survivor count (T/C endpoint: mean survival time, dose: 25.0 mg/kg/injection, schedule: Q01DX009 (ip), vehicle: Klucel (hydroxypropylcellulose) (HPC)) is reported as 6 of 6 and the survivor count (T/C endpoint: mean survival time, dose: 50.0 mg/kg/injection, schedule: Q01DX001 (ip), vehicle: Klucel (hydroxypropylcellulose) (HPC)) is reported as 0 of 6. For the same compound, the T/C (T/C endpoint: mean survival time, dose: 50.0 mg/kg/injection, schedule: Q01DX001 (ip), vehicle: saline with Tween-80) was 148 % of control, the survivor count (T/C endpoint: mean survival time, dose: 50.0 mg/kg/injection, schedule: Q01DX009 (ip), vehicle: Klucel (hydroxypropylcellulose) (HPC)) was 5 of 6 and the T/C (T/C endpoint: mean survival time, dose: 100.0 mg/kg/injection, schedule: Q01DX001 (ip), vehicle: Klucel (hydroxypropylcellulose) (HPC)) was 140 % of control. For the same compound, the T/C (T/C endpoint: mean survival time, dose: 100.0 mg/kg/injection, schedule: Q01DX001 (ip), vehicle: saline with Tween-80) was 149 % of control, the T/C (T/C endpoint: mean survival time, dose: 200.0 mg/kg/injection, schedule: Q01DX001 (ip), vehicle: Klucel (hydroxypropylcellulose) (HPC)) was 134 and 142 % of control and the T/C (T/C endpoint: mean survival time, dose: 200.0 mg/kg/injection, schedule: Q01DX001 (ip), vehicle: saline with Tween-80) was 134 % of control [5 of 6 alive]. The survivor count (T/C endpoint: mean survival time, dose: 400.0 mg/kg/injection, schedule: Q01DX001 (ip), vehicle: Klucel (hydroxypropylcellulose) (HPC)) was 1 of 6.

`NC(Cc1c[nH]c2cc(N(CCCl)CCCl)ccc12)C(=O)O` (stereo not drawn) was tested, and the T/C (T/C endpoint: mean survival time, dose: 1.0 mg/kg/injection, schedule: Q01DX Z (ip), vehicle: other) was 126 % of control and the T/C (T/C endpoint: mean survival time, dose: 250.0 micrograms/kg/injection, schedule: Q01DX009 (ip), vehicle: carboxymethylcellulose (CMC)) was 137 % of control.
